Results published in publication PMC8888459.
Results are given in words; binding and its absence hold for the method and conditions named. Some entries that bind do so weakly or less than the wild type. Where a sequence is shown, tags or fusion partners need not be part of it.

Chains of the proteins cited; added tags and fusions are not shown. Lines headed by an entry give the natural chain unless they say otherwise; changes in a name come on top.
UniProt P25374: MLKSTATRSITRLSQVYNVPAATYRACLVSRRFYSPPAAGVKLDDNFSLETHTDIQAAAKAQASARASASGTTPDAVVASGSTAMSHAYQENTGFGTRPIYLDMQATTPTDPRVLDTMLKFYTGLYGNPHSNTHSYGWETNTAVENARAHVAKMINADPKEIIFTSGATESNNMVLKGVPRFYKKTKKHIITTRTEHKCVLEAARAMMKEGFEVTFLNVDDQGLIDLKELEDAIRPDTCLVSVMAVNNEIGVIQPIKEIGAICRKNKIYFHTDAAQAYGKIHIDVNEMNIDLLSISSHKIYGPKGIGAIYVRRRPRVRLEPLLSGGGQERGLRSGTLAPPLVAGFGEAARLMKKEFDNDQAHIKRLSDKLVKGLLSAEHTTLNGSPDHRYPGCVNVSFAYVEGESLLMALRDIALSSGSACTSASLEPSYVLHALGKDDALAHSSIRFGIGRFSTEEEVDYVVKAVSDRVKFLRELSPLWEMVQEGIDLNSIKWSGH

Key:
[1] = target: T1, Yah1-GST fusion protein (S. cerevisiae) (UniProt Q12184); assay: pull-down; GST-tagged Yah1 bait (2.5 μM) incubated with NIA (5 μM or increasing) and/or Isu1 (7.5 μM) in buffer PD (40 mM Hepes–KOH pH 7.5, 5% glycerol, 100 mM KCl, 1 mM DTT, 10 mM MgCl2) 15 min at 25 °C; glutathione agarose 1 h at 4 °C; SDS-PAGE, InstantBlue, densitometry corrected for binding to GST; aerobic (Yah1 cluster oxidised); both purified
T1 sequence: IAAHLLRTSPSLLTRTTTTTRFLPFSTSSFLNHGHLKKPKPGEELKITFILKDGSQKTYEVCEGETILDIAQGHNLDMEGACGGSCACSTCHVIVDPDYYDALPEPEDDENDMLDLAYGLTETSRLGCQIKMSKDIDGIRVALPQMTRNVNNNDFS

[2] = target: T1, Yah1-GST fusion protein (S. cerevisiae); assay: BLI; Yah1^GST immobilised on anti-GST biosensors; analytes NIA (10 μM) alone, Isu1 (10 μM) alone or both; buffer BLI (40 mM HEPES–KOH pH 7.5, 5% glycerol, 100 mM KCl, 1 mM DTT, 10 mM MgCl2, 0.05% Triton X-100); room temperature; aerobic (Yah1 cluster oxidised); fits with the 2:1 heterogenous ligand model; both purified
[3] = target: T1, Yah1-GST fusion protein (S. cerevisiae); assay: pull-down; competition: Yah1^GST (2.5 μM) with NIA (5 μM), with or without Isu1Sc or Isu1Ct (7.5 μM), then Yfh1 WT or DE/KK added (12.5 μM or increasing concentrations); glutathione resin; densitometry, amount without Yfh1 set as 100%; buffer PD; both purified
[4] = target: T1, Yah1-GST fusion protein (S. cerevisiae); assay: BLI; anaerobic chamber; Yah1^GST (WT or DD/KK) chemically reduced with 5 mM sodium dithionite (30 min, then desalted) and immobilised on anti-GST sensors; analytes NIA (10 μM), NIA with Isu1Sc (10 μM each) or Isu1Sc (10 μM); buffer BLI; both purified

Measured: binding

NIA complex (Nfs1–Isd11–ACPEc) (from UniProt P25374 37-497; Q6Q560 1-94; P0A6A8 1-78)
binds: all assays above

NIA–Isu1 complex with S. cerevisiae Isu1 (from UniProt P25374 37-497; Q6Q560 1-94; P0A6A8 1-78; Q03020 28-165)
binds: [1] | [2] | [3]
